Test results: publication PMC12392098

Amino acid sequences for entries named in this document (tags omitted). Residues count along the entry.
UniProt Q9Y543, 13-70: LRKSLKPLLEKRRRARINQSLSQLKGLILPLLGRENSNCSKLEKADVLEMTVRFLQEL
UniProt Q99929, 50-102: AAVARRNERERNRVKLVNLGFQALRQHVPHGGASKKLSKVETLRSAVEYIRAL

Tests used:
[1] = target: HES2 DBD wild type (human) (UniProt Q9Y543); assay: EMSA (fluorescent); conditions: 300 nM protein, 166.67 nM probe, bound-band marker for SELEX; 32P EMSA: ~50 nM probe, 0.5/1/2 uM protein, 30 min, reagents as in Feng et al., gel at 4 C; recombinant protein; protein details: N-terminal 6xHis
[2] = target: ASCL2 DBD wild type (human) (UniProt Q99929); assay: EMSA (fluorescent); conditions: 300 nM protein, 166.67 nM probe, bound-band marker for SELEX; 32P EMSA: ~50 nM probe, 0.5/1/2 uM protein, 30 min, reagents as in Feng et al., gel at 4 C; recombinant protein; protein details: N-terminal 6xHis, mScarlet fusion

| Sequence | binding result [1] | binding result [2] |
| --- | --- | --- |
| CTCTCCTCCGTCAACACGTGTTGAGCAGCGCAGTCGTATGCCGTCTTCTGCTTG (double strand) [HES2 high-affinity fluorescent probe] | binds |  |
| CTCTCCTCCGTCAACAGCTGTTGAGCAGCGCAGTCGTATGCCGTCTTCTGCTTG (double strand) [ASCL2 high-affinity fluorescent probe] |  | binds |

The exact form of at least one protein or probe is not confirmed. At least one verdict rests on a figure or table, not on a statement of the authors.
